Results deposited as PubChem BioAssay AID686937 (Drosophila RNAi Screening Center, 2013)
The deposit covers about 23,000 reagents; shown is an unselected part of those with a known target gene and a result. 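Reduced-secretion tags in replicate 1 do not always agree with the z-scores; no criterion for assigning the tags was given.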 Reagents against one gene are numbered here. Names joined by + are all predicted targets of the reagent. Not given: the amount of reagent.

- Test: 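Knock-downs that reduce output of a secreted reporter enzyme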 (primary screen)
- Cell system: Drosophila S2 cells expressing secreted horseradish peroxidase
- Knock-down reagent: long dsRNA against Drosophila genes
- Time to read-out: about 5.5 days (5 days dsRNA, then 12 h reporter induction)
- Challenge: reporter expression induced after 5 days of dsRNA, read 12 h later; inducer not stated
- Measurement: 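Chemiluminescent measurement of peroxidase in the medium 12 h after reporter induction, following 5 days of dsRNA, given as a z-score per plate; higher means more secretion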
- Reading the numbers: z-score: higher = more reporter secreted into medium

no.	gene knocked down	reagent no.	z-score, replicate 1	z-score, replicate 2	z-score, replicate 3	z-score, replicate 4	phenotype, replicate 1
1	CG8460	1	0.28	0.19			
2	Trs23	1	0.25	-0.22			
3	CG4842	1	0.01	-0.05			
4	CG5644	1	0.27	0.09			
5	trbd	1	0.22	0.17			
6	CG3955	1	0.13	-0.37			
7	Non2	1	0.22	0.15			
8	nab	1	0.57	-0.15			
9	nab	2	0.39	0.34			
10	CG43980	1	-1.01	0.11			
11	CG43980	2	0.24	0.37			
12	CG43980	3	0.12	-0.39			
13	Actn	1	0.27	0.3			
14	CG9123	1	0.21	0.61			
15	CG43338	1	0.92	0.83			
16	bora	1	0.14	0.06			
17	pirk	1	-0.09	0.19			
18	IntS12	1	0.67	1.05			
19	CG30177	1	-1.38	-0.45			
20	CG8517	1	0.62	0.31			
21	His2B:CG33894 + His2B:CG33872 + His2B:CG33902 + 20 more	1	-3.34	-3.6			reduced secretion
22	CG8135 + BBIP1	1	-1.12	-1.48			
23	CG8135 + BBIP1	2	0.41	0.72			
24	CG32713	1	-0.37	0.33			
25	Hex-C	1	-0.18	-0.01			
26	MrgBP	1	-0.55	-1.03			
27	Nse1	1	0.17	0.14			
28	CG3106	1	0.49	0.51			
29	ort	1	0.4	0.42			
30	CG32457	1	0.65	0.38	0.51	0.39	
31	CG32457	2	0.4	-0.06			
32	CG14631	1	0.3	0.4			
33	CG14631	2	0.34	0.34			
34	tay	1	0.28	0.3			
35	CG9106	1	0.2	0.42			
36	mRpS23	1	-0.65	-0.31			
37	CG17375	1	0.17	0.18			
38	CG4194	1	0.26	0.38			
39	Ntf-2	1	-0.6	-0.81			
40	CG13021	1	-2.98	-0.27			
41	Cpr47Ed	1	-0.11	0.06			
42	eIF4E4	1	0.6	-0.15			
43	Dop1R2	1	0.27	0.62			
44	Dop1R2	2	0.06	0.14			
45	dy	1	0.35	0.17			
46	mldr	1	0.51	0.72			
47	tipE	1	0.29	0.46			
48	CG31459	1	0.11	0.32			
49	CG43218	1	-1.13	0.5			
50	CG10208	1	0.59	0.52			
51	ATPsynCF6	1	-0.08	-0.49			
52	Cht11	1	0.15	0.39			
53	CG42553	1	0.14	0.28			
54	CG43187	1	0.2	0.28			
55	Suv3	1	0.24	0			
56	CG15439	1	0.37	0.26			
